# Data taken from PubChem BioAssay (NCATS).
# Values joined by “and” are separate entries in the source; they are usually repeats but may differ in a detail not shown here. Equal entries are not always repeated. Inconclusive means that the source gave no clear call. Such entries were picked first, then a sample of the others. For some assays here: Where the call is inconclusive, the potency comes from a doubtful curve fit. Active and inactive are the calls of the source. Unless noted, the call rests on the fitted dose curve; in most records, active means well fitted curve in the direction sought with a large enough effect; inconclusive means small, poorly fitted or top-dose-only effect, or another doubt; inactive means no such curve, though single readings can be large; an effect the other way counts as inactive or inconclusive.
# Tests used:
# [1] = Quantitative High-Throughput drug screen in 47 multiple myeloma cell lines against the NCATS MIPE library collection: UTMC2_PLB cell viability assay (AID 1919868); details: CellTiter-Glo ATP luminescence, 48 h; viability (% of DMSO control): at 45.8 µM (top of the series); further: nearly all actives have a fitted effect of over 55% in size
# Procedure, shortened: (§1)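 Myeloma cells (500/well) treated with MIPE 4.0 compounds for 48 h at 37 °C, 5% CO2. Viability read as ATP via CellTiter-Glo luminescence after 5 min at RT; DMSO-only wells = 100%, media-only = 0% viability.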
# [2] = Quantitative High-Throughput drug screen in 47 multiple myeloma cell lines against the NCATS MIPE library collection: RPMI8226_ATCC cell viability assay (AID 1919871); further: nearly all actives have a fitted effect of over 30% in size
# Procedure, shortened: as §1
# [3] = Quantitative High-Throughput drug screen in 47 multiple myeloma cell lines against the NCATS MIPE library collection: OPM2_DSMZ cell viability assay (AID 1919872); further: nearly all actives have a fitted effect of over 30% in size
# Procedure, shortened: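 Steps: seed 500 cells per well; pin-transfer MIPE 4.0 library; incubate 48 h at 37C, 5% CO2, humidified; add CellTiter-Glo, 5 min room temperature; read luminescence.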
# [4] = Quantitative High-Throughput drug screen in 47 multiple myeloma cell lines against the NCATS MIPE library collection: KMS11_JCRBsus cell viability assay (AID 1919873); further: nearly all actives have a fitted effect of over 50% in size
# Procedure, shortened: as §1
# [5] = Quantitative High-Throughput drug screen in 47 multiple myeloma cell lines against the NCATS MIPE library collection: KMS28BM_JCRB cell viability assay (AID 1919874); further: nearly all actives have a fitted effect of over 35% in size
# Procedure, shortened: as §1
# [6] = qHTS for identification of novel therapeutic agents for treatment of microphthalmiaassociated transcription factor (MiT) renal cell carcinoma (RCC) (AID 1963991; calls by dose curve); details: TFE3-RCC UOK109 viability, CellTiter-Glo, 48 h; active = Z-AUC below -0.8 in all three lines
# Procedure, shortened: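 Curves over 11 concentrations were fitted to CellTiter-Glo luminescence, scaled between empty wells (0%) and DMSO (100%) viability. Cells were UOK109, UOK124 and UOK145 TFE3-fusion RCC lines at 500/well, exposed 48 hours at 37 C.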
# CRL-7250 = normal cell line; test: Cytotoxic Profiling of Annotated Libraries Using Quantitative High-Throughput Screening (AID 1296008); details: Five cell lines viability, CellTiter-Glo ATP luminescence, 48-72 h; max response: stronger effect = lower value; further: nearly all actives have a fitted effect of over 60% in size; on max response: on the % scale 0 is the no-effect control and ±100 the full control effect
# Procedure, shortened: (§2)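 Compounds were pin-transferred onto cells and incubated 48 or 72 hr at 37 degree Celsius, 95% humidity. CellTiter-Glo was added, plates sat 10 min at room temperature, then ATP-coupled luminescence was imaged as the viability read-out.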
# HaCat = test: as above; details: Five cell lines viability, CellTiter-Glo ATP luminescence, 48-72 h; max response: stronger effect = lower value
# Procedure, shortened: as §2
# KB-3-1 = test: as above; details: Five cell lines viability, CellTiter-Glo ATP luminescence, 48-72 h; max response: stronger effect = lower value
# Procedure, shortened: as §2
# MCC-13 = test: qHTS assay to identify novel small-molecules to repurpose for Merkel cell carcinoma treatment (AID 1296009); details: MCC and control cell lines, CellTiter-Glo viability, 72 h; series mostly up to 46 µM; further: nearly all actives have a fitted effect of over 60% in size
# Procedure, shortened: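 Cells exposed to NPC (8-point) and MIPE (11-point) compound dilutions for 72 hr at 37 degree celsius; viability read by CellTiter-Glo luminescence, normalized to no-cell and DMSO in-plate controls.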
# [7] = Quantitative High-Throughput drug screen in 47 multiple myeloma cell lines against the NCATS MIPE library collection: PCM6_Riken cell viability assay (AID 1919870); details: CellTiter-Glo ATP, 48 h; viability (% of control): at 45.8 µM (top of the series); further: nearly all actives have a fitted effect of over 30% in size
# Procedure, shortened: as §1
# HEK293 = test: Cytotoxic Profiling of Annotated Libraries Using Quantitative High-Throughput Screening (AID 1296008); details: Five cell lines viability, CellTiter-Glo ATP luminescence, 48-72 h; max response: stronger effect = lower value; further: nearly all actives have a fitted effect of over 60% in size; on max response: on the % scale 0 is the no-effect control and ±100 the full control effect
# Procedure, shortened: as §2
# NIH3T3 = test: as above; details: Five cell lines viability, CellTiter-Glo ATP luminescence, 48-72 h; max response: stronger effect = lower value
# Procedure, shortened: as §2
# [8] = Quantitative High-Throughput drug screen in 47 multiple myeloma cell lines against the NCATS MIPE library collection: PE2_PLB cell viability assay (AID 1919869); further: nearly all actives have a fitted effect of over 35% in size
# Procedure, shortened: as §1
# Potency means the concentration at half of the fitted maximal effect.
compound,measurement,setting,value
CO[C@@H](C(=O)N1Cc2[nH]nc(NC(=O)c3ccc(N4CCN(C)CC4)cc3)c2C1)c1ccccc1,Potency,[1],active: 0.0332 µM
same,Potency,[2],"inconclusive: 1.66 µM [cytotoxic, partial curve]"
same,Potency,[3],"inconclusive: 5.9 µM [cytotoxic, partial curve]"
same,Potency,[4],"inconclusive: 0.935 µM [cytotoxic, full curve]"
same,Potency,[5],active: 1.66 µM
same,Potency,[6],"inconclusive: 18.7 µM [falling, partial curve]"
same,Potency,CRL-7250,active: 5.26 µM
same,Potency,HaCat,active: 2.35 µM
same,Potency,KB-3-1,active: 11.8 µM
same,Potency,MCC-13,"inconclusive: 4.18 µM [inhibitor, full curve]"
CC(C)=CC[C@@H](O)C1=CC(=O)c2c(O)ccc(O)c2C1=O,Potency,[7],"inconclusive: 0.743 µM [cytotoxic, full curve, poor fit]"
same,Potency,[3],active: 1.32 µM
same,Potency,[6],"inconclusive: 9.35 µM [falling, partial curve]"
same,Potency,CRL-7250,"inconclusive: 0.833 µM [inhibitor, full curve, poor fit]"
same,Potency,HEK293,"inconclusive: 37.2 µM [inhibitor, single point]"
C=CCc1ccc(O)c(-c2ccc(O)c(CC=C)c2)c1,Potency,[1],"inconclusive: 20.9 µM [cytotoxic, partial curve, poor fit]"
same,Potency,[3],"inconclusive: 20.9 µM [cytotoxic, partial curve]"
same,Potency,[4],"inconclusive: 37.2 µM [cytotoxic, single point]"
same,Potency,[6],"inconclusive: 5.9 µM [falling, full curve]"
same,Potency,CRL-7250,"inconclusive: 33.2 µM [inhibitor, single point]"
same,Potency,HaCat,active: 20.9 µM
same,Potency,KB-3-1,"inconclusive: 37.2 µM [inhibitor, partial curve, poor fit]"
Clc1cc(Cl)cc(CNc2ncncc2-c2ccc3c(c2)OCO3)c1,Potency,[1],"inconclusive: 29.6 µM [cytotoxic, single point]"
same,Potency,[2],"inconclusive: 33.2 µM [cytotoxic, single point]"
same,Potency,[3],"inconclusive: 37.2 µM [cytotoxic, single point]"
same,Potency,[5],"inconclusive: 20.9 µM [cytotoxic, partial curve]"
same,Potency,CRL-7250,"inconclusive: 23.5 µM [inhibitor, partial curve]"
same,Potency,HaCat,"inconclusive: 37.2 µM [inhibitor, single point]"
same,Potency,KB-3-1,"inconclusive: 29.6 µM [inhibitor, single point]"
same,Potency,NIH3T3,"inconclusive: 16.6 µM [inhibitor, partial curve, poor fit]"
COc1cc2c(cc1Cc1cccc(Cl)c1F)c(=O)c(C(=O)O)cn2[C@H](CO)C(C)C,Potency,[7],active: 16.6 µM
same,Potency,[3],"inconclusive: 26.4 µM [cytotoxic, single point]"
same,Potency,CRL-7250,"inconclusive: 29.6 µM [inhibitor, single point]"
same,Potency,HEK293,"inconclusive: 37.2 µM [inhibitor, single point]"
same,Potency,KB-3-1,"inconclusive: 33.2 µM [inhibitor, single point]"
CCCn1c(=O)c2[nH]c(-c3cnn(Cc4cccc(C(F)(F)F)c4)c3)nc2n(CC)c1=O,Potency,[1],inactive
same,Potency,[7],inactive
same,Potency,[2],active: 7.43 µM
same,Potency,[4],inactive
same,Potency,[5],inactive
same,Potency,CRL-7250,"inconclusive: 33.2 µM [inhibitor, single point]"
same,Potency,HEK293,"inconclusive: 29.1 µM [inhibitor, single point]"
Nc1ccn([C@@H]2O[C@H](CO)[C@@H](O)[C@H]2O)c(=O)n1,Potency,[3],inactive
same,Potency,[5],inactive
same,Potency,[6],inconclusive: 0.00105 µM
same,Potency,CRL-7250,"inconclusive: 0.0526 µM [inhibitor, full curve]"
same,Potency,HaCat,active: 29.6 µM
same,Potency,KB-3-1,"inconclusive: 10.5 µM [inhibitor, partial curve]"
same,Potency,MCC-13,"inconclusive: 0.132 µM [inhibitor, full curve]"
CNC(=O)c1cc(Oc2ccc(NC(=O)Nc3ccc(Cl)c(C(F)(F)F)c3)c(F)c2)ccn1,Potency,[7],"inconclusive: 4.18 µM [cytotoxic, full curve]"
same,Potency,[2],"inconclusive: 16.6 µM [cytotoxic, partial curve]"
same,Potency,[5],"inconclusive: 16.6 µM [cytotoxic, partial curve]"
same,Potency,[6],"inconclusive: 14.8 µM [falling, partial curve]"
same,Potency,CRL-7250,"inconclusive: 11.8 µM [inhibitor, single point]"
same,Potency,HEK293,"active: 7.43 µM and inconclusive: 29.1 µM [inhibitor, single point]"
same,Potency,NIH3T3,"inconclusive: 23.1 µM [inhibitor, single point]"
same,Potency,MCC-13,"inconclusive: 6.62 µM [inhibitor, full curve]"
C[C@]12CC[C@@H]3c4ccc(O)cc4C[C@@H](CCCCCCCCCS(=O)CCCC(F)(F)C(F)(F)F)[C@H]3[C@H]1CC[C@H]2O (stereo not given in full),Potency,[8],inactive
same,Potency,[7],"inconclusive: 0.0012 µM [rising, full curve, poor fit]"
same,Potency,[2],"inconclusive: 7.43 µM [cytotoxic, partial curve, poor fit]"
same,Potency,[4],active: 2.09 µM
same,Potency,[5],"inconclusive: 3.32 µM [cytotoxic, full curve, poor fit]"
same,Potency,CRL-7250,"inconclusive: 37.2 µM [inhibitor, single point]"
same,Potency,HEK293,"inconclusive: 9.35 µM [inhibitor, full curve]"
CN(C)CCOc1cc(-c2cn[nH]c2)ccc1NC(=O)C1COc2ccccc2O1 (stereo not given),Potency,[7],active: 4.69 µM
same,Potency,[3],inconclusive: 0.001 µM
same,Potency,[4],"inconclusive: 18.7 µM [cytotoxic, partial curve]"
same,Potency,[6],"inconclusive: 29.6 µM [falling, partial curve]"
same,Potency,CRL-7250,"inconclusive: 14.8 µM [inhibitor, partial curve]"
same,Potency,HEK293,"inconclusive: 20.9 µM [inhibitor, partial curve] and inconclusive: 25.9 µM [inhibitor, single point]"
same,Potency,NIH3T3,"inconclusive: 33.2 µM [inhibitor, single point]"
same,Potency,MCC-13,"inconclusive: 6.62 µM [inhibitor, partial curve]"
COc1ccc(-n2c(C)c([N+](=O)[O-])c3ccc(O)cc32)cc1,Potency,[1],inactive
same,Potency,[7],"inconclusive: 33.2 µM [cytotoxic, single point]"
same,Potency,[2],inactive
same,Potency,[4],"inconclusive: 6.62 µM [cytotoxic, partial curve, poor fit]"
same,Potency,[5],"inconclusive: 5.26 µM [cytotoxic, partial curve, poor fit]"
same,Potency,CRL-7250,"inconclusive: 33.2 µM [inhibitor, single point]"
same,max response,HEK293,inactive: -7.19%
COc1ccc(-c2nc(N3CCOCC3)c3sc(CN(C)c4ncc(C(=O)NO)cn4)cc3n2)cn1,Potency,[1],"inconclusive: 0.0017 µM [cytotoxic, full curve]"
same,Potency,[8],active: 0.001 µM
same,Potency,[7],"inconclusive: 0.0037 µM [cytotoxic, full curve]"
same,Potency,[2],"inconclusive: 0.0033 µM [cytotoxic, full curve]"
same,Potency,[5],inactive
same,Potency,[6],active: 0.0264 µM
same,Potency,CRL-7250,active: 0.059 µM
same,Potency,HaCat,active: 0.148 µM
same,Potency,KB-3-1,active: 0.0264 µM
same,Potency,NIH3T3,active: 0.118 µM
same,Potency,MCC-13,active: 0.0662 µM
COCCCOc1cc(C[C@@H](C[C@H](N)[C@@H](O)C[C@H](C(=O)NCC(C)(C)C(N)=O)C(C)C)C(C)C)ccc1OC,Potency,[1],"inconclusive: 10.5 µM [cytotoxic, full curve, poor fit]"
same,Potency,[8],inactive
same,Potency,[7],"inconclusive: 18.7 µM [cytotoxic, partial curve, poor fit]"
same,Potency,[4],inactive
same,Potency,[5],inactive
same,Potency,CRL-7250,"inconclusive: 37.2 µM [inhibitor, single point]"
same,Potency,HEK293,"inconclusive: 0.0376 µM [inhibitor, full curve]"
Oc1ccc(-c2ccc(-c3cc(Nc4cccc(CNC5CC5)c4)n[nH]3)cc2)c(O)c1,Potency,[6],"inconclusive: 3.32 µM [falling, full curve]"
same,Potency,CRL-7250,"inconclusive: 9.35 µM [inhibitor, full curve, poor fit]"
same,Potency,HaCat,"inconclusive: 23.5 µM [inhibitor, partial curve, poor fit]"
same,Potency,KB-3-1,active: 1.32 µM
same,Potency,NIH3T3,"inconclusive: 3.72 µM [inhibitor, full curve]"
same,Potency,MCC-13,"inconclusive: 20.9 µM [inhibitor, single point]"
CNCCCC12CCC(c3ccccc31)c1ccccc12,Potency,[1],"inconclusive: 33.2 µM [cytotoxic, partial curve, poor fit]"
same,Potency,[3],active: 23.5 µM
same,Potency,[6],"inconclusive: 20.9 µM [falling, partial curve]"
same,Potency,CRL-7250,"inconclusive: 23.7 µM [inhibitor, single point] and inconclusive: 14.8 µM [inhibitor, partial curve, poor fit]"
same,Potency,HaCat,"inconclusive: 29.9 µM [inhibitor, single point]"
same,Potency,KB-3-1,"inconclusive: 29.6 µM [inhibitor, single point] and inconclusive: 29.1 µM [inhibitor, single point]"
same,Potency,NIH3T3,"inconclusive: 33.5 µM [inhibitor, single point] and inconclusive: 23.5 µM [inhibitor, single point] and inconclusive: 23.1 µM [inhibitor, single point]"

# Three entries drawn at random from those above, as already listed:
compound,measurement,setting,value
COc1cc2c(cc1Cc1cccc(Cl)c1F)c(=O)c(C(=O)O)cn2[C@H](CO)C(C)C,Potency,KB-3-1,"inconclusive: 33.2 µM [inhibitor, single point]"
COCCCOc1cc(C[C@@H](C[C@H](N)[C@@H](O)C[C@H](C(=O)NCC(C)(C)C(N)=O)C(C)C)C(C)C)ccc1OC,Potency,[7],"inconclusive: 18.7 µM [cytotoxic, partial curve, poor fit]"
Oc1ccc(-c2ccc(-c3cc(Nc4cccc(CNC5CC5)c4)n[nH]3)cc2)c(O)c1,Potency,[6],"inconclusive: 3.32 µM [falling, full curve]"
